# At least one structure is not confirmed: it was looked up by name or label, or the drawing left a doubt.
# Target: 20-HETE-Producing Enzyme derived from Human Renal Microsome
# Experiment: Inhibitory action to 20-HETE-producing enzyme derived from human renal microsome
# Assay type: biochemical
# Details: human renal microsome fraction, tritium-arachidonic acid substrate, NADPH, 37° C., 1.5 hours, pH 7.4; read-out: IC50 (inhibition of 20-HETE production)
# Description: Inhibitory Action to 20-HETE-Producing Enzyme derived from Human Renal Microsome
# With regard to the compounds listed in the above table, their inhibitory actions to 20-HETE production were tested.
# This test was carried out in accordance with a method mentioned in J. Pharmacol. Exp. Ther., volume 268, page 474 (1994).
# A solution of the test compound adjusted to 1 μM using DMSO was added to a 50 mM of 3-morpholinopropanesulfonic acid buffer (MOPS) (pH 7.4) containing 5 mM of magnesium chloride and 1 mM of sodium ethylenediaminetetraacetate (EDTA), then human renal microsome fraction (Human Cell Culture Center, Anatomic Gift Foundation), [5,6,8,9,11,12,15]tritium-arachidonic acid and NADPH were added thereto as an enzymatic source, a substrate and a coenzyme, respectively and reaction was carried out at 37° C. for 1.5 hours. Formic acid was added to the reaction solution to stop the reaction and then acetonitrile was added thereto (final concentration: 50%). Amount of 20-HETE produced thereby was measured using a high performance liquid chromatography equipped with a radioactive substance detector having an ODS column (Biosil C18; manufactured by Biorad).
# Amount of 20-HETE produced when no compound was added was defined as 100% and the concentration of the compound when production of 20-HETE was inhibited to an extent of 50% upon addition of a compound (IC50 value) was calculated.
structure (smiles),measurement,value
O/N=C/Nc1ccc(N2CCC3(CC2)OCCO3)c(Br)c1 [Compound 36],IC50,3.3 nM

# Reference: patent US7214714B2, “20-hydroxyeicosatetraenoic acid production inhibitors” (Taisho Pharmaceutical Co. Ltd., priority 2001, dated 2007)
